PubChem BioAssay AID652243 | Drosophila RNAi Screening Center, 2013
The screen tested about 24,000 reagents; this is an unselected part of those with a known target gene and a result. Of all reagents, 246 (1%) are marked active. 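Plates not normalised; calls are printed but the firefly/Renilla ratio behind them is not deposited; fold cut for lowering reported inconsistently.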 Raw values vary from plate to plate and are shown uncorrected. Reagents against one gene are numbered here. A plus sign joins genes that one reagent is predicted to hit. Not stated in the record: the amount of reagent.

Screen: 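Fly genes required for human androgen receptor driven transcription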 (primary screen)
System: Drosophila S2R+ cells
Reagents: long dsRNA against Drosophila genes
Time to read-out: 72 h (48 h, then 24 h hormone)
Treatment: synthetic androgen R1881 at 10 nM for 24 h
Measurement: 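Per-well raw luminescence of the androgen-driven firefly reporter and of the Renilla control, two replicates each, without normalisation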
Reading the numbers: firefly reporter light: higher = more light from androgen-responsive reporter; Renilla control light: higher = more constitutive control signal (cell number, transfection)
Call rule: 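Across duplicate plates, a knock-down whose log firefly/Renilla ratio shifted a set fold down or up from the GFP/LacZ control mean was a hit; the downward cut appears as both 1.5 and 3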
Calls: active = hit: reporter lowered or raised; inactive = no hit

target gene	reagent	firefly reporter light, replicate 1	firefly reporter light, replicate 2	Renilla control light, replicate 1	Renilla control light, replicate 2	outcome
Spn42De	1	1.28e5	1.13e5	1.29e6	1.10e6	inactive
Spn42De	2	5.16e5	4.02e5	1.78e6	1.67e6	inactive
CG34451	1	1.66e6	1.65e6	2.83e6	2.26e6	inactive
bor	1	1.45e5	86752	1.54e6	1.30e6	inactive
Prosbeta2R2	1	48580	48412	9.57e5	1.19e6	inactive
CG42264	1	1.78e5	2.62e5	2.32e6	2.81e6	inactive
CG42264	2	2.44e5	2.91e5	2.21e6	2.01e6	inactive
CG42264	3	4.70e5	4.11e5	1.39e6	1.28e6	inactive
CG7778	1	5.98e5	1.15e6	1.85e6	1.70e6	inactive
CG7778	2	1.94e5	3.32e5	6.81e5	7.96e5	inactive
TwdlY	1	7.86e5	8.48e5	2.08e6	2.01e6	inactive
CG14297	1	2.05e5	1.83e5	3.21e6	3.01e6	inactive
CG14297	2					inactive
CG14260	1	1.72e5	1.47e5	2.27e6	2.59e6	inactive
Dnah3	1	2.88e5	3.12e5	3.79e5	3.06e5	inactive
Dnah3	2	1.25e5	1.67e5	1.49e6	1.76e6	inactive
Dnah3	3	3.29e5	3.50e5	9.52e5	1.10e6	inactive
Mcm7	1	7.40e5	8.66e5	1.10e6	1.14e6	inactive
Mcm7	2	3.88e5	1.59e5	3.80e5	3.56e5	inactive
skd	1	1.60e5	1.27e5	1.58e6	1.91e6	inactive
Jon44E	1	3.15e5	2.51e5	1.29e6	1.31e6	inactive
Jon44E	2	7.70e5	3.98e5	6.73e5	6.85e5	inactive
pncr004:X (retired record)	1	6.68e5	6.74e5	1.40e6	1.58e6	inactive
CG14443	1	1.91e5	1.99e5	2.43e6	2.37e6	inactive
CG34436	1	1.92e5	2.17e5	1.51e6	2.74e6	inactive
Jon66Cii	1	1.76e5	1.44e5	1.69e6	1.68e6	inactive
Jon66Cii	2	6.80e5	6.22e5	1.48e6	1.86e6	inactive
PGRP-SC1b	1	8.28e5	1.14e6	1.59e6	1.54e6	inactive
Obp56f	1	9.49e5	1.07e6	1.98e6	2.07e6	inactive
ball	1	74717	85339	1.71e6	1.96e6	active
ball	2	2.53e5	2.90e5	7.39e5	6.46e5	inactive
sv	1	2.65e5	1.70e5	3.22e6	2.42e6	inactive
sv	2	2.79e5	2.87e5	7.42e5	7.32e5	inactive
CG13046	1	82350	1.37e5	1.14e6	1.63e6	inactive
CG33255 (retired record) + CR42842 + hpRNA:CR32205 + 1 more	1	1.54e5	1.88e5	2.10e5	1.84e5	inactive
CG1636	1	4.78e5	4.98e5	1.63e6	1.94e6	inactive
Kr	1	2.55e5	2.04e5	1.26e6	7.70e5	inactive
cnc	1	1.39e5	1.38e5	1.90e6	1.68e6	inactive
cnc	2	61266	62415	6.26e5	6.48e5	inactive
cnc	3	1.80e5	2.61e5	2.62e6	2.78e6	inactive
cnc	4	2.48e5	2.34e5	1.99e6	1.94e6	inactive
Fen1	1	67940	86787	1.30e6	1.30e6	inactive
CG31524	1	6.50e5	5.87e5	2.25e6	1.79e6	inactive
CG31524	2	9.11e5	5.72e5	1.26e6	1.07e6	inactive
CG34228	1	6.03e5	6.39e5	1.41e6	1.76e6	inactive
CG12863	1	1.27e5	1.90e5	2.64e6	2.64e6	inactive
CG43132 (retired record)	1	5.70e5	5.35e5	4.07e6	4.41e6	inactive
Ir75b	1	2.21e5	1.78e5	1.81e6	1.69e6	inactive
gny	1	8.49e5	9.00e5	1.25e6	2.07e6	inactive
ss	1	1.83e5	1.54e5	2.44e6	2.34e6	inactive
Gbp3	1	1.51e5	1.61e5	2.60e6	2.28e6	inactive
CG5793	1	2.96e5	2.92e5	3.82e6	4.19e6	inactive
CG5793	2	3.77e5	2.87e5	8.11e5	7.84e5	inactive
robo3	1	93991	73933	7.65e5	8.46e5	inactive
robo3	2	1.04e5	81795	8.21e5	9.11e5	inactive
CG11099	1	1.37e5	1.36e5	1.48e6	1.51e6	inactive
Yod1	1	1.06e6	9.80e5	1.88e6	2.60e6	inactive
Yod1	2	3.65e5	2.42e5	7.28e5	4.48e5	inactive
Nep3	1	1.76e5	1.98e5	3.13e5	2.60e5	inactive
Nep3	2	5.29e5	6.60e5	1.11e6	1.11e6	inactive
lectin-24Db	1	7.92e5	8.71e5	2.24e6	2.48e6	inactive
CG3701 (retired record)	1	2.15e5	2.61e5	8.81e5	1.25e6	inactive
CG3701 (retired record)	2	84548	90151	6.91e5	1.22e6	inactive
CG31869	1	2.68e5	2.13e5	2.53e6	1.93e6	inactive
CG31869	2	1.67e5	1.67e5	1.76e6	1.86e6	inactive
CG13443	1	61816	1.25e5	7.27e5	1.21e6	inactive
pinta	1	1.10e5	65110	5.98e5	5.45e5	inactive
zfh2	1	54334	47781	4.66e5	2.86e5	inactive
zfh2	2	6.21e5	3.09e5	1.87e6	1.44e6	inactive
CG30274	1	2.89e5	2.52e5	1.50e6	1.55e6	inactive
CG30274	2	7.26e5	6.37e5	1.47e6	1.30e6	inactive
CG30412	1	6.92e5	6.41e5	3.64e6	2.75e6	inactive
CG30412	2	9.36e5	6.84e5	6.06e5	6.97e5	inactive
nahoda	1	1.62e5	1.48e5	3.55e5	3.53e5	inactive
nahoda	2	5.86e5	4.87e5	9.63e5	7.32e5	inactive

Reagents above marked active (1):
target gene	reagent	firefly reporter light, replicate 1	firefly reporter light, replicate 2	Renilla control light, replicate 1	Renilla control light, replicate 2	outcome
ball	1	74717	85339	1.71e6	1.96e6	active
